The test in a line: qHTS Assay for Lipid Storage Modulators in Drosophila S3 Cells.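 As to cell number change: cells counted by Cell Tracker Red CMTPX staining in the red channel.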 Particulars: BODIPY lipid droplet fluorescence, 18-24 h; for cell number change: measured here: cell count max response, cells fed with added oleic acid. Summed up: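 Laser-scanning cytometry quantifies lipid droplet accumulation (500–530 nm total intensity; droplet/cell object ratio) in oleic acid-fed (400 uM added) Drosophila S3 cells treated with a concentration series. 20 uM Triacsin C defined 100% inhibition.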

The mark [1] stands for this setting: measured here: lipid fluorescence (Fed channel) AC50, cells fed with added oleic acid.
Where [2] appears, read: measured here: cell number channel AC50, cells fed with added oleic acid.

This is one part of the list. Further columns of the screen follow, without active or inactive calls. The list favours compounds with an active or inconclusive main result. Words in brackets tell the shape of the fitted curve; partial curves, single points and poor fits give uncertain potencies.

In the case of `COc1ccc(/C=C(/NC(=O)c2ccco2)C(=O)N2CCOCC2)cc1`, the cell number change was -7.08%.
In the case of `Cn1c(=O)n(CCCOc2ccc(Br)cc2)c2ccccc21`, the cell number change was 3.7%. Besides, under setting [1], the AC50 was 259 nM [falling, full curve].
For `O=C(c1cc2ccccc2oc1=O)N1CCN(S(=O)(=O)c2ccccc2)CC1`, the cell number change is 14.4%. For the same compound, the AC50 under setting [1] was 7310 nM [rising, partial curve, poor fit].
On to `C/C(=N\NC(=O)c1ccc(Cl)c(Cl)c1)c1ccccn1`, for which the cell number change was -10.9%. Moreover, the half-maximal activity concentration (AC50) under setting [1] is 5170 nM [falling, full curve].
In the case of `COc1ccccc1OCc1ccc(C(=O)n2nc(C)c(Cl)c2C)o1`, the cell number change is -37.8%. Besides, the concentration at half-maximal activity (AC50) under setting [1] was 20600 nM [falling, single point].
As to `NC(=O)CC[C@@H]1NC(=O)[C@H](Cc2ccc(O)cc2)NC(=O)c2cc([N+](=O)[O-])cc(F)c2OCC[C@@H](C(N)=O)NC1=O`, the cell number change was -32.5%. Besides, under setting [2], the AC50 is 164 nM [falling, full curve, poor fit]. For the same compound, under setting [1], the concentration at half-maximal activity (AC50) is 7310 nM [falling, partial curve].
On to `CN1C(=O)NC(c2ccccc2)C2=C1CN(c1ccc3ccccc3c1)C2=O` (stereo not drawn), for which the cell number change was 3.04%. Besides, the AC50 under setting [1] was 651 nM [falling, partial curve, poor fit].
Take `Cc1ccc(SCC(=O)Nc2cccc(-c3nnc(-c4ccco4)o3)c2)cc1`: the cell number change came out at 40.7%. In addition, the AC50 under setting [2] was 2310 nM [rising, full curve, poor fit]. Further, the AC50 under setting [1] is 2910 nM [rising, full curve].
With `O=C(CCC1N=C2c3ccccc3N=C(SCc3ccc(F)cc3)N2C1=O)NCc1ccco1` (stereo not drawn), the cell number change is -21.4%. In addition, the AC50 under setting [1] was 5800 nM [falling, partial curve, poor fit].
On to `COc1ccc([N+](=O)[O-])cc1NC(=O)Cc1ccc(Cl)cc1`, for which the cell number change is -0.141%. Besides, the AC50 under setting [1] is 1460 nM [rising, partial curve, poor fit].
Regarding `CCCc1cc(CNC(=O)C2CCC(=O)N(Cc3ccccc3OC)C2)on1` (stereo not drawn), the cell number change was -17.7%.
Same read-out and setting: as for `Fc1ccc2nc3[nH]c4ccccc4c3nc2c1`, the figure is 25%.
Take `CCCCC(=O)Nc1nn(CCC)c2nc3ccccc3cc12`: the AC50 is 1840 nM [rising, partial curve] under setting [2] and 1160 nM [rising, partial curve] under setting [1].
With `CC(C)(C)NC(=O)NC(=O)Cn1cc(C(F)(F)F)ccc1=O`, the cell number change is 17.5%.
Regarding `C/C(NCc1cccnc1)=C(\C#N)C(=O)NCc1ccccc1`, the cell number change is -5.98%.
For the compound `COCCn1c(SCC(=O)N2CCOCC2)nc2ccccc2c1=O`, the cell number change amounted to 19.8%. Besides, under setting [2], the AC50 is 58 nM [rising, full curve, poor fit]. Moreover, the AC50 under setting [1] is 29100 nM [rising, single point].
In the case of `CCN(CC)S(=O)(=O)c1cccc(C(=O)NC(Cc2c[nH]c3ccccc23)c2nnc3n2CCC3)c1` (stereo not drawn), the cell number change is -21.3%. Besides, the half-maximal activity concentration (AC50) under setting [2] was 3260 nM [falling, single point]. Also, the AC50 under setting [1] is 130 nM [falling, full curve, poor fit].
With `COc1ccc(CNC(=O)c2nc(S(=O)(=O)Cc3ccccc3)ncc2Cl)cc1`, the cell number change came out at 5.67%. In addition, the AC50 under setting [2] was 4110 nM [falling, partial curve, poor fit].
In the case of `O=C(OCc1ccc([N+](=O)[O-])cc1Cl)c1cnccn1`, the cell number change was -37.3%. Under setting [2], the AC50 was 18400 nM [falling, partial curve, poor fit]. Besides, the AC50 under setting [1] is 29100 nM [falling, single point].
As for `CCN(CC)S(=O)(=O)c1ccc2c(c1)c(=O)c(C(=O)NCc1ccc3c(c1)OCO3)cn2C`, the cell number change came to 0.877%. For the same compound, under setting [1], the AC50 was 259 nM [rising, full curve].
On to `COc1ccc(-c2cc3ccc(OCC(N)=O)cc3oc2=O)cc1OC`, for which the cell number change is -7.76%. For the same compound, the AC50 under setting [1] was 580 nM [falling, single point].
For the compound `Cc1cccc(N2CCN(C(=O)CCCCCn3c(=S)[nH]c4ccc(N5CCOCC5)cc4c3=O)CC2)c1C`, under setting [1], the AC50 was 18400 nM [falling, partial curve].
For the compound `CCCN1CCN(C(=O)CN2C(=O)CC(C)(C)S(=O)(=O)c3ccccc32)CC1`, the cell number change was -39.1%. Also, the AC50 under setting [1] was 29100 nM [falling, partial curve].
With `COc1ccccc1NC(=O)Nc1nc(C(C)(C)C)cs1`, the cell number change is -42.9%. Moreover, the AC50 under setting [2] was 6510 nM [rising, partial curve, poor fit].
On to `O=S(=O)(NCc1ccccc1)NCc1ccccc1`, for which the cell number change is -25.6%. Moreover, the AC50 under setting [2] was 2590 nM [falling, single point].
With `COc1cc2c(cc1OC)CN(C(=O)c1ccc3nc[nH]c3c1)CC2`, the cell number change stood at 5.85%. For the same compound, the half-maximal activity concentration (AC50) under setting [1] was 130 nM [falling, full curve, poor fit].
With `COC(=O)C1=C(C(=O)OC)[C@@H]2N(C)c3ccc(OC)cc3[C@@]23C[C@@H](C(=O)OC)N(C(=O)c2cccs2)C3=N1`, the cell number change was determined as 23.1%. Moreover, the AC50 under setting [1] is 6510 nM [rising, single point].
On to `COc1cc(Cl)c([C@@H]2C[C@H]3CN(c4ccccc4)C(=O)[C@]34CCCN24)cc1OC`, for which the cell number change was -15.9%. The AC50 under setting [2] was 6510 nM [falling, single point].
On to `O=C(Nc1ccc2nc3n(c(=O)c2c1)CCCCC3)C(=O)N1CCN(c2ccc(F)cc2)CC1`, for which the cell number change was -3.83%.
On to `CCOc1ccccc1-n1c(SCC(=O)Nc2nccs2)nnc1-c1ccoc1C`, for which the cell number change was -9.57%. Under setting [1], the AC50 was 164 nM [rising, full curve].
As to `COc1ccc(NC(=O)CSc2nnc(NC(=O)C3CCC3)s2)cc1`, the cell number change came to 39.3%. In addition, the AC50 under setting [2] is 29100 nM [rising, single point]. The AC50 under setting [1] was 103 nM [rising, full curve, poor fit].
For the compound `Cc1cccc(N(C)C(=O)COc2cc(=O)n(C)c3ccccc23)c1`, the cell number change is -14.4%. Moreover, the AC50 under setting [1] is 65.1 nM [rising, full curve, poor fit].
For the compound `O=C(N/N=C/C1CC=CCC1)c1cc(Br)ccc1O` (stereo not drawn), the cell number change is -9.38%. Further, the AC50 under setting [1] was 6510 nM [falling, partial curve, poor fit].
Turning to `Cc1cccc(C(=O)C2CCN(S(=O)(=O)c3cccc(C(=O)O)c3)CC2)c1`, the cell number change is -1.21%. Moreover, under setting [1], the AC50 was 2910 nM [falling, single point].
With `O=C1CC(c2ccccc2Cl)CC(O)=C1C=Nc1ccccc1` (stereo not drawn), the cell number change is 24.4%. Also, the AC50 under setting [1] is 29100 nM [rising, single point].
For the compound `N#Cc1ccc(OCC(=O)Nc2ccc(N3CCCC3)cc2)cc1`, the cell number change was -14.2%.
Consider `Cc1ccc2ccccc2c1Cn1c(-n2ccnc2)nc2c1c(=O)n(C)c(=O)n2C`, for which the cell number change was 31.4%. In addition, under setting [2], the AC50 was 146 nM [rising, full curve, poor fit]. The AC50 under setting [1] was 29100 nM [rising, partial curve, poor fit].
As for `OCC[C@@H]1C[C@H](O)[C@@H](O)[C@]2(CCc3ccccc3O2)O1`, the cell number change worked out at 18.9%. Moreover, the AC50 under setting [1] was 16.4 nM [falling, full curve, poor fit].
For `COc1ccc(N=C2NC(=O)/C(=C\C=C\c3ccco3)S2)cc1`, the cell number change is -51.3%. The half-maximal activity concentration (AC50) under setting [2] was 32600 nM [falling, single point].
`CC(Sc1nc(N)cc(=O)[nH]1)C(=O)N1CCOCC1` (stereo not drawn): the cell number change was -18.6%. Besides, the AC50 under setting [1] was 4110 nM [falling, full curve].
Regarding `CCCC(C(=O)Nc1ccc(S(=O)(=O)N2CCOCC2)cc1)c1ccccc1` (stereo not drawn), the cell number change is -4.57%. In addition, the AC50 under setting [1] was 731 nM [falling, single point].
Take `O=C(Nc1ccc(Br)cc1)c1ccc(F)c(S(=O)(=O)N2CCN(c3ccccn3)CC2)c1`: the cell number change is -6.32%. Also, the AC50 under setting [2] is 103 nM [falling, full curve, poor fit]. Besides, under setting [1], the AC50 is 206 nM [falling, full curve, poor fit].
Turning to `CCN1c2ccccc2-c2nc3ccccc3n2C1c1ccco1` (stereo not drawn), the cell number change was 73.9%.
Turning to `COc1ccc(C(=O)OCc2cc(=O)n3c(C)csc3n2)cc1F`, the cell number change turned out to be 12.6%. Under setting [1], the AC50 is 32600 nM [rising, single point].
In the case of `CC(C)CCn1c(SCC(=O)OCn2nnc3ccccc3c2=O)nc2ccccc2c1=O`, the AC50 under setting [2] was 2590 nM [rising, single point].
Still for that read-out and setting: as for `Cc1ccc(CC(=O)N2CCN(C(=O)C3CCCO3)CC2)cc1` (stereo not drawn), the figure is 6510 nM [rising, single point].
On to `Cc1ccc(C)c(NC(=S)NC(NC(=O)Cc2ccccc2)C(Cl)(Cl)Cl)c1` (stereo not drawn), for which the cell number change is -32.1%. In addition, the AC50 under setting [2] was 16400 nM [falling, single point]. Further, the AC50 under setting [1] was 2910 nM [rising, single point].
In the case of `Cc1cccc(Oc2ccccc2NC(=O)C2=COCCO2)c1`, the cell number change was -9.17%. Moreover, under setting [1], the AC50 is 731 nM [falling, single point].
In the case of `COc1ccc(-c2nc(CSCC(=O)N3CCN(c4cccc(C)c4)C(C)C3)c(C)o2)cc1OC` (stereo not drawn), the cell number change was -9.97%. Under setting [1], the AC50 was 29100 nM [falling, single point].
Take `O=C(Nc1c2c(nn1-c1ccccc1)CSC2)c1ccc(N2C(=O)CCC2=O)cc1`: the cell number change was -18.8%. Besides, the AC50 under setting [2] was 517 nM [falling, full curve, poor fit].
On to `COc1cc2c(cc1NC(=O)COc1ccccc1OC)oc1ccccc12`, for which the cell number change amounted to 93.7%. Also, the AC50 under setting [2] was 2060 nM [rising, full curve].
For `Cc1cccc(OCCC(=O)OCc2csc(CC(=O)Nc3ccccc3C)n2)c1`, the cell number change was determined as 44.6%. Also, the concentration at half-maximal activity (AC50) under setting [2] is 29100 nM [rising, single point]. For the same compound, the AC50 under setting [1] is 3660 nM [rising, partial curve].
Consider `CCOC(=O)c1oc2cc(OCC(N)=O)ccc2c(=O)c1-c1ccc(OC)c(OC)c1`, for which the cell number change is 10.3%. In addition, the concentration at half-maximal activity (AC50) under setting [2] was 2910 nM [falling, single point]. For the same compound, the AC50 under setting [1] is 291 nM [falling, full curve].
With `COC(=O)Nc1nnc(Cc2ccccc2)s1`, the cell number change turned out to be 10.1%. The AC50 under setting [2] is 206 nM [falling, full curve, poor fit]. Also, the concentration at half-maximal activity (AC50) under setting [1] was 5800 nM [falling, partial curve, poor fit].
Consider `CC1(C)CC(NC(=O)COc2ccc([N+](=O)[O-])cc2)CC(C)(C)N1`, for which the cell number change was -17.2%. The AC50 under setting [1] was 4610 nM [falling, full curve, poor fit].
As to `C#CCOCCOCCOCCNc1nc(N2CCN(C(=O)[C@H](CCC(=O)O)n3cc(C(N)CC(C)C)nn3)CC2)nc(N2CCN(C(=O)[C@H](Cc3ccc(O)cc3)n3cc(C(N)[C@H](C)CC)nn3)CC2)n1` (stereo partly drawn), the cell number change is -9.91%. Besides, the concentration at half-maximal activity (AC50) under setting [1] is 5.8 nM [falling, full curve, poor fit].

Source of the values: PubChem BioAssay AID2685 (National Center for Advancing Translational Sciences (NCATS), 2010).
